Test results from PubChem BioAssay.
The inconclusive results got no clear call from the source; some entries with a clear call stand among them for comparison. Where the call is inconclusive, the potency comes from a doubtful curve fit. Activity calls are given as the source filed them. Unless noted, the limit is not given here; nearly all actives have AC50 up to about 26 µM.

Experiments:
[1] = growth inhibition of DIPG glioma cells, dose response, cell-based, SU-DIPG-XVII, MIPE5.0, CellTiter-Glo, qHTS (AID 1347060); settings: SU-DIPG-XVII viability, CellTiter-Glo ATP luminescence;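 as to AC50: cells exposed to compound for 48 hours before viability readout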
[2] = growth inhibition of DIPG glioma cells, dose response, cell-based, SU-DIPG-XIII, MIPE4.0, CellTiter-Glo, qHTS (AID 1347061; cut-off not given, nearly all actives have AC50 up to about 37 µM;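 also: cells exposed to compound for 48 hours before readout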); settings: SU-DIPG-XIII viability, CellTiter-Glo ATP luminescence
[3] = growth inhibition of DIPG glioma cells, dose response, cell-based, JHH-DIPG-1, MIPE4.0, CellTiter-Glo, qHTS (AID 1347062; cut-off not given, nearly all actives have AC50 up to about 27 µM;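 as to AC50: cells exposed to compound for two days before readout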); settings: JHH-DIPG-1 viability, CellTiter-Glo ATP luminescence
[4] = growth inhibition of DIPG glioma cells, dose response, cell-based, SU-DIPG-IV, MIPE4.0, CellTiter-Glo, qHTS (AID 1347063; cut-off not given, nearly all actives have AC50 up to about 30 µM;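 also: compound exposure lasted 48 hours before the viability readout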); settings: SU-DIPG-IV viability, CellTiter-Glo ATP luminescence
[5] = growth inhibition of DIPG glioma cells, dose response, cell-based, SU-DIPG-XIII, MIPE5.0, CellTiter-Glo, qHTS (AID 1347064; cut-off not given, nearly all actives have AC50 up to about 23 µM;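 also: cells exposed to compound for 48 hours before the viability read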); settings: SU-DIPG-XIII viability, CellTiter-Glo ATP luminescence
[6] = JHH-DIPG-1 glioma cell viability, MIPE5.0 library, CellTiter-Glo luminescence, qHTS (AID 1347067); settings: JHH-DIPG-1 glioma viability, CellTiter-Glo ATP luminescence;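 also: cells exposed to compound for 48 hours before readout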
[7] = SU-DIPG-XXV glioma cell viability, MIPE5.0 library, qHTS (AID 1347068; cut-off not given, nearly all actives have IC50 up to about 30 µM;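 also: cells exposed to compound for 48 hours before viability readout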)
[8] = viability loss in pontine glioma line – cell-based, SU-DIPG-XXV, MIPE5.0, CellTiter-Glo, qHTS, dose response (AID 1347065); settings: CellTiter-Glo ATP luminescence;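 also: cells exposed to compound for 48 hours before ATP readout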
[9] = SU-DIPG-VI glioma cell viability, MIPE4.0 library, CellTiter-Glo luminescence, qHTS (AID 1347066; cut-off not given, nearly all actives have AC50 up to about 30 µM;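 also: cells exposed to compound for 48 hours before readout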); settings: CellTiter-Glo ATP luminescence

CC/C(=C(/c1ccc(O)cc1)c1ccc(OCCNC)cc1)c1ccccc1
inconclusive: AC50 [2] 23.5 µM [cytotoxic] | AC50 [4] 1.48 µM [cytotoxic] | AC50 [6] 4.68 µM [cytotoxic] | IC50 [7] 0.00132 µM [cytotoxic]
active: AC50 [1] 2.63 µM | AC50 [3] 23.5 µM | AC50 [5] 9.34 µM

OC[C@H]1O[C@@H](Oc2cc(O)cc(/C=C/c3ccc(O)cc3)c2)[C@H](O)[C@@H](O)[C@@H]1O
inconclusive: AC50 [1] 10.5 µM [cytotoxic] | AC50 [2] 20.9 µM [cytotoxic] | AC50 [4] 8.33 µM [cytotoxic] | AC50 [5] 9.34 µM [cytotoxic]
inactive: outcome [3] | outcome [6]

NCCCC(O)(P(=O)(O)O)P(=O)(O)O
inconclusive: AC50 [4] 0.0526 µM [cytotoxic] | AC50 [9] 0.00166 µM [cytotoxic]
inactive: outcome [1] | outcome [2] | outcome [3] | outcome [8]

CCCS(=O)(=O)Nc1ccc(F)c(C(=O)c2c[nH]c3ncc(Cl)cc23)c1F
inconclusive: AC50 [1] 13.2 µM [cytotoxic] | AC50 [2] 14.8 µM [cytotoxic] | AC50 [3] 33.2 µM [cytotoxic] | AC50 [4] 10.5 µM [cytotoxic] | AC50 [8] 10.5 µM [cytotoxic] | AC50 [6] 23.5 µM [cytotoxic]

Two successive entries already listed:
NCCCC(O)(P(=O)(O)O)P(=O)(O)O
inconclusive: AC50 [4] 0.0526 µM [cytotoxic] | AC50 [9] 0.00166 µM [cytotoxic]
inactive: outcome [1] | outcome [2] | outcome [3] | outcome [8]

CCCS(=O)(=O)Nc1ccc(F)c(C(=O)c2c[nH]c3ncc(Cl)cc23)c1F
inconclusive: AC50 [1] 13.2 µM [cytotoxic] | AC50 [2] 14.8 µM [cytotoxic] | AC50 [3] 33.2 µM [cytotoxic] | AC50 [4] 10.5 µM [cytotoxic] | AC50 [8] 10.5 µM [cytotoxic] | AC50 [6] 23.5 µM [cytotoxic]

Further results.

Nc1ncnc2c1nc(Cl)n2[C@@H]1O[C@H](CO)[C@@H](O)[C@H]1O
inconclusive: AC50 [1] 20.9 µM [cytotoxic] | AC50 [2] 18.7 µM [cytotoxic] | AC50 [3] 23.5 µM [cytotoxic] | AC50 [4] 20.9 µM [cytotoxic] | AC50 [8] 37.2 µM [cytotoxic] | AC50 [6] 13.2 µM [cytotoxic]
active: AC50 [9] 23.5 µM
